Substitutions are numbered along the chain they refer to. Results are given in words; binding and its absence hold for the method and conditions named. In cells and extracts the contact can be indirect. Some entries that bind do so weakly or less than the wild type. Sequences can lack the tags named with a protein.

Sequences of proteins named here, by UniProt entry; tags and fusion partners are left off.
UniProt Q460N5: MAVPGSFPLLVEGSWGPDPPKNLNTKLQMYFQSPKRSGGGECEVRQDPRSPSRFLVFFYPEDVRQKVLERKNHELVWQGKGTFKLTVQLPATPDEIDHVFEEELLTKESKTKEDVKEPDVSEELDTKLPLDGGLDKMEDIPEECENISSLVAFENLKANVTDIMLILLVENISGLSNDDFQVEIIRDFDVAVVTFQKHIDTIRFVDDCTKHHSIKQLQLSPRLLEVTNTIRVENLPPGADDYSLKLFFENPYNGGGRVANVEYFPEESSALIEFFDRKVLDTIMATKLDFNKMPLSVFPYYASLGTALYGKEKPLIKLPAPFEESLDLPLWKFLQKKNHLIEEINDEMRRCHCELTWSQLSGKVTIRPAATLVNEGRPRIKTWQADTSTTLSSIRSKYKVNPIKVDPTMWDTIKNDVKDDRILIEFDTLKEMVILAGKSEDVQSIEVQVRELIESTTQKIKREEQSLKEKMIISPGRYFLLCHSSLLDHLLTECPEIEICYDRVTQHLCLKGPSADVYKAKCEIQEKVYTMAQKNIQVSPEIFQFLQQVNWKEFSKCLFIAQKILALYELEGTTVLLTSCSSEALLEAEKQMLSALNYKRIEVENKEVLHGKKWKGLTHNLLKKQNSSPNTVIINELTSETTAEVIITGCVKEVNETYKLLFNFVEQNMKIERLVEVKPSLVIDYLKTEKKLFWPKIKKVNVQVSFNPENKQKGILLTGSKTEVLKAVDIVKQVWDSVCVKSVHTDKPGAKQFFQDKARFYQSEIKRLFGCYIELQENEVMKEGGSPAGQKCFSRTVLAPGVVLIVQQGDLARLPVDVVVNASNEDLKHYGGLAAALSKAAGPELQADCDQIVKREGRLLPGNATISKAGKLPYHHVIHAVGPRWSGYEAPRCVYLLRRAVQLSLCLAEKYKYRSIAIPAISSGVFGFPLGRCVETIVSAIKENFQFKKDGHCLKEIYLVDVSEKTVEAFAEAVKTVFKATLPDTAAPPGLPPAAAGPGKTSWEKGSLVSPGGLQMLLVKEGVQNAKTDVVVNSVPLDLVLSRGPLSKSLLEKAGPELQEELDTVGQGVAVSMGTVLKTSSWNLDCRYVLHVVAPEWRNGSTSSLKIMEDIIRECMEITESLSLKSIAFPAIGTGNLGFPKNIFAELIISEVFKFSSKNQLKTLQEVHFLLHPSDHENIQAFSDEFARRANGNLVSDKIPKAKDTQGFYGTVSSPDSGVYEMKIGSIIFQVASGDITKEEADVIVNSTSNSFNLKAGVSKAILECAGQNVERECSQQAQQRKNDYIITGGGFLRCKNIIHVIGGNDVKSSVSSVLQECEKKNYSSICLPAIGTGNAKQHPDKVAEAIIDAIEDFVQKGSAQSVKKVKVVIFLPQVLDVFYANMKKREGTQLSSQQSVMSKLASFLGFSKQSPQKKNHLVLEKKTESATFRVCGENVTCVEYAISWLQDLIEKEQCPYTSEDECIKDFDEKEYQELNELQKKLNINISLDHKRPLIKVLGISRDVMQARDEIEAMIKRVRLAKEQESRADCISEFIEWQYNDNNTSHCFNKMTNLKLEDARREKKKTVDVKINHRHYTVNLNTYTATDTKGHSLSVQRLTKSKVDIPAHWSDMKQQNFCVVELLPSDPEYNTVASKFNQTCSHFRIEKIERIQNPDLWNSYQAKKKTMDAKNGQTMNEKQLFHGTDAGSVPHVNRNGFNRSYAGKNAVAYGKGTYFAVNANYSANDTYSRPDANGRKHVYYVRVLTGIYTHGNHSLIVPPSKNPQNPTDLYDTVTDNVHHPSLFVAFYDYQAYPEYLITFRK

Binding data for 1 substance are collected here from paper PMC9417990.

Test [1] deals with T1, Flag-tagged mutant STAT6 D419G (human) (UniProt P42226).
T1 sequence: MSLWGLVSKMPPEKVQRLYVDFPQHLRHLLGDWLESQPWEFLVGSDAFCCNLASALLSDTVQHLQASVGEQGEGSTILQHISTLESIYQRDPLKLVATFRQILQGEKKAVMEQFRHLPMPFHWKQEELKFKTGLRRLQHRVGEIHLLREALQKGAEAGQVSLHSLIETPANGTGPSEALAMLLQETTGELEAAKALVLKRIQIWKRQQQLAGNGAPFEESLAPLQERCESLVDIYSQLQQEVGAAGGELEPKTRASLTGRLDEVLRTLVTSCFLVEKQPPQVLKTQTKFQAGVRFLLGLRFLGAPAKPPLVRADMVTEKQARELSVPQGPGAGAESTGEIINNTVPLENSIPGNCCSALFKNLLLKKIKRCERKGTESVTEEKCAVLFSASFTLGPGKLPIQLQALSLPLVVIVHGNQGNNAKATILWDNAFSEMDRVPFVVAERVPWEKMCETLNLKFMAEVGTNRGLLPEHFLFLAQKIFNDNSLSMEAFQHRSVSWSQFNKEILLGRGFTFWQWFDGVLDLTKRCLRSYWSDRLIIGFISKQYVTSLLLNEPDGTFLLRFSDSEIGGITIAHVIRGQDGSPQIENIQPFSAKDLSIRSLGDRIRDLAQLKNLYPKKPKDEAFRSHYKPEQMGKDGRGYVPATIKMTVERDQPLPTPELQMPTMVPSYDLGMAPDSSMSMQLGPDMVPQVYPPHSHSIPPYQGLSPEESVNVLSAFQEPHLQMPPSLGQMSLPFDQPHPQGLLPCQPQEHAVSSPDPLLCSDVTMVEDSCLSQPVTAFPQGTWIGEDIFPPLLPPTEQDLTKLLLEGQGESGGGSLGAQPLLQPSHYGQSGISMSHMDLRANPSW
Nature of the test: proximity ligation; 2 µm cytoblock sections of OCI-Ly8 cells (STAT6^WT vs STAT6^MUT, with or without IL-4 10 ng/ml for 20 min), co-stained with mouse anti-STAT6 and rabbit anti-PARP14; PLA spots per cell counted in five view fields.

Test [2] addresses T2, Flag-tagged wild type STAT6 (human) (UniProt P42226).
T2 sequence: T1 sequence with G419D
The description is as above.

As to “Poly(ADP-Ribose) Polymerase Family Member 14 (PARP14) (from UniProt Q460N5 1-1801)”, the binding entry in test [1] and in test [2] was “binds” throughout.
